Experimental data from PubChem BioAssay AID540276 (National Center for Advancing Translational Sciences (NCATS), 2011).
Several values for one entry are separate records, joined by “and”; a condition that tells them apart may be missing. Equal values may be shown once. Among all 300,000 compounds or so, about 5,400 (1.8%) were called active. The shares of active, inactive and inconclusive entries below differ from those in the screen. The call rests on the fitted dose curve; tested in HEK293 cells. Potencies of inconclusive entries are doubtful fits and often do not repeat.

Assay: qHTS for inhibitors of binding or entry into cells for Marburg Virus
Settings: Marburg virus pseudotyped entry inhibition, cell reporter; series mostly up to 37.8 µM
Potency means the concentration at half of the fitted maximal effect.

**Q.** For `COc1cc(/C=C2\NC(=S)NC2=O)ccc1OCc1cccc(C(=O)O)c1`, which Potency is on record?
**A.** inconclusive: 7.08 µM [inhibitor, partial curve, poor fit]

**Q.** With `CCN(CC(=O)Nc1cc(Cl)ccc1C)C(=O)c1ccc2c(c1)NC(=O)C(C)S2` (centres undefined) as the compound, how does the Potency read?
**A.** inactive

**Q.** Which Potency does the source give for `Nc1cc(OC(=O)c2cccs2)nn1S(=O)(=O)c1ccccc1` here?
**A.** inactive

**Q.** With `CCCc1nnc(NC(=O)c2ccc(S(=O)(=O)N(C)c3ccccc3OC)cc2)s1` as the compound, how does the Potency read?
**A.** inactive

**Q.** Which Potency does the source give for `Cc1ccsc1C=Nc1ccc(O)cc1` here?
**A.** inconclusive: 3.55 µM [inhibitor, full curve, poor fit]

**Q.** Which Potency does the source give for `Cc1ccc(NC(=O)Cn2nc(C(F)(F)F)c3c2CCCC3)cc1C` here?
**A.** inconclusive: 35.5 µM [inhibitor, single point]

**Q.** Which Potency does the source give for `CCOc1ccc(C2=CS/C(=C(\C#N)c3nnc4n3CCCCC4)N2CC)cc1` here?
**A.** inconclusive: 29.1 µM [inhibitor, single point]

**Q.** For `Cc1ccnc(NC(=S)NC(=O)c2cncc(Br)c2)c1`, which Potency is on record?
**A.** inconclusive: 6.51 µM [activator, single point]

**Q.** With `CN(C)S(=O)(=O)Oc1ccc(Cl)cc1C(=O)Nc1cccc(C(F)(F)F)c1` as the compound, how does the Potency read?
**A.** inactive

**Q.** For `Cc1nc2c(o1)CCc1ccccc1[C@H]2N1CCN(C)CC1`, which Potency is on record?
**A.** inactive

**Q.** For `COc1ccccc1-c1nnc(NC(=O)c2ccc(S(=O)(=O)N(C)C)cc2)o1`, which Potency is on record?
**A.** inactive

**Q.** Which Potency does the source give for `Cc1cc(C(=O)O)ccc1-c1ccc(CO)o1` here?
**A.** inconclusive: 3.16 µM [activator, full curve, poor fit]

**Q.** Which Potency does the source give for `CCn1c(-c2cc(-c3cc(C)ccc3C)nc3ccccc23)n[nH]c1=S` here?
**A.** inactive

**Q.** Which Potency does the source give for `CC(C)(C)n1nc2c(c1NC(=O)c1cccs1)CS(=O)C2` (centres undefined) here?
**A.** inconclusive: 2.82 µM [activator, full curve]

**Q.** Which Potency does the source give for `CCOC(=O)c1[nH]c2c(c1Cc1ccccc1OC)C(=O)CC(c1ccc(OC)cc1)C2` (centres undefined) here?
**A.** inconclusive: 22.4 µM [inhibitor, single point]

**Q.** Which Potency does the source give for `CC(=O)c1ccc(OCc2cc(C(=O)NC3CCCCC3)no2)cc1` here?
**A.** inconclusive: 0.562 µM [activator, full curve, poor fit]

**Q.** For `Cc1ccc(N2C(=O)c3n[nH]c(C)c3C2c2ccc(Cl)cc2)cc1` (centres undefined), which Potency is on record?
**A.** inconclusive: 35.5 µM [activator, single point]

**Q.** For `O=C(CSc1ccccc1)NCc1ccc(F)cc1`, which Potency is on record?
**A.** inconclusive: 14.1 µM [inhibitor, single point]

**Q.** With `N#C/C(=N\Nc1cccc(F)c1)C(=N)N1CCCCCC1` as the compound, how does the Potency read?
**A.** inconclusive: 1.41 µM [activator, partial curve, poor fit]

**Q.** Which Potency does the source give for `CCc1ccc2oc(=O)cc(CN3CCN(c4ccc(F)cc4)CC3)c2c1` here?
**A.** inconclusive: 35.5 µM [inhibitor, single point]

**Q.** For `Clc1ccc(-c2nnnn2-c2ccc(Cl)cc2)cc1`, which Potency is on record?
**A.** inconclusive: 6.31 µM [inhibitor, single point]

**Q.** With `CCCCNC(=O)CSc1nc2cc3c(cc2c(=O)n1CCCC(=O)NCCc1ccc(OC)c(OC)c1)OCO3` as the compound, how does the Potency read?
**A.** inconclusive: 6.31 µM [inhibitor, single point]

**Q.** Which Potency does the source give for `Clc1cccc(CSc2ccc(-c3cccnc3)nn2)c1` here?
**A.** inactive

**Q.** With `Cc1ccccc1N/C(=C(/C(Cl)=C(Cl)Cl)[N+](=O)[O-])n1nnc2ccccc21` as the compound, how does the Potency read?
**A.** inactive

**Q.** With `CCC(=O)N1CCc2cc(S(=O)(=O)NC(C(=O)NCCc3ccc(OC)c(OC)c3)C(C)C)ccc21` (centres undefined) as the compound, how does the Potency read?
**A.** inactive

**Q.** For `CCN(CC)c1ccc(/C=N/NC(=O)c2cc(C)nc3ccccc23)cc1`, which Potency is on record?
**A.** inconclusive: 1.12 µM [inhibitor, full curve, poor fit]

**Q.** With `Nc1ccc(-c2ccc3ccccc3n2)cc1` as the compound, how does the Potency read?
**A.** active: 6.31 µM

**Q.** Which Potency does the source give for `CC1CCN(S(=O)(=O)c2ccc(NC(=O)c3cccs3)cc2)CC1` here?
**A.** inconclusive: 15.8 µM [inhibitor, single point]

**Q.** With `O=C(Cn1c(=O)n(CC2CS2)c2ccccc21)N1CCCCC1` (centres undefined) as the compound, how does the Potency read?
**A.** inconclusive: 35.5 µM [inhibitor, single point]

**Q.** Which Potency does the source give for `CS(=O)(=O)c1ccc(S(=O)CC(=O)Oc2ccc(Cl)cc2)c([N+](=O)[O-])c1` (centres undefined) here?
**A.** active: 11.2 µM

**Q.** Which Potency does the source give for `COc1cc(/C=C(\C#N)c2nc3ccccc3[nH]2)ccc1Oc1ccc([N+](=O)[O-])cn1` here?
**A.** inconclusive: 29.1 µM [inhibitor, single point]

**Q.** Which Potency does the source give for `O=C(CCS(=O)(=O)c1cc(Br)cc2c1N(C(=O)C1CC1)CC2)N1CCN(c2cccc(Cl)c2)CC1` here?
**A.** inconclusive: 3.55 µM [activator, single point]

**Q.** Which Potency does the source give for `COc1ccccc1Nc1nc(N)nc(CN2CCC(Cc3ccccc3)CC2)n1` here?
**A.** inconclusive: 18.3 µM [activator, single point]

**Q.** For `O=C(CSc1nnc(-c2ccc(S(=O)(=O)N3CCCC3)cc2)o1)NCc1ccccc1`, which Potency is on record?
**A.** inconclusive: 29.1 µM [inhibitor, single point]

**Q.** For `Cc1cccc(C(=O)Nc2ccc(O)cc2C(=O)O)c1`, which Potency is on record?
**A.** inconclusive: 8.91 µM [activator, single point]

**Q.** With `CCNC(=O)CN(Cc1ccccc1)S(=O)(=O)c1ccccc1` as the compound, how does the Potency read?
**A.** inconclusive: 0.326 µM [inhibitor, partial curve, poor fit]

**Q.** Which Potency does the source give for `COc1ccc(-c2nc3c(C(=O)NCCN(C)C)cccc3c3ccccc23)cc1` here?
**A.** inconclusive: 14.1 µM [inhibitor, single point]

**Q.** With `COC(=O)c1ccc(CNC(=O)c2ccc(S(=O)(=O)N3CCCC(C)C3)cc2)cc1` (centres undefined) as the compound, how does the Potency read?
**A.** inactive

**Q.** Which Potency does the source give for `O=C(NCc1ccccc1)/C(=C\c1ccc(O)cc1)NC(=O)c1ccco1` here?
**A.** inconclusive: 25.1 µM [inhibitor, single point]

**Q.** Which Potency does the source give for `CC(=O)NC(=S)Nc1sc2c(c1C(N)=O)CCC(C)C2` (centres undefined) here?
**A.** inconclusive: 6.31 µM [activator, single point]

**Q.** For `CN(CC(=O)Nc1cccc(F)c1)C(=O)CNC(=O)Cc1cccc2ccccc12`, which Potency is on record?
**A.** inactive

**Q.** With `Cc1cccc(C(=O)OCC(=O)NCc2cccs2)c1` as the compound, how does the Potency read?
**A.** inactive

**Q.** With `COc1ccc(NS(=O)(=O)c2ccc(N3CCOCC3)c(NC(=O)c3ccco3)c2)cc1` as the compound, how does the Potency read?
**A.** inactive

**Q.** Which Potency does the source give for `COc1ccc(C(=O)O/N=C(\N)c2ccccn2)c(OC)c1` here?
**A.** inconclusive: 2.51 µM [inhibitor, full curve, poor fit]

**Q.** Which Potency does the source give for `CCCCn1cnc2cc(NCc3ccccc3Cl)ccc21` here?
**A.** active: 12.6 µM

**Q.** Which Potency does the source give for `Cc1nc2ccc(NS(=O)(=O)c3cccc([N+](=O)[O-])c3)cc2s1` here?
**A.** inconclusive: 11.2 µM [inhibitor, single point]

**Q.** Which Potency does the source give for `O=C(Nc1ccccc1N1CCN(C(=O)c2ccccc2)CC1)c1ccco1` here?
**A.** inconclusive: 4.47 µM [inhibitor, full curve, poor fit]

**Q.** For `Cc1ccc(-n2ncc3c(Nc4cccc(C(=O)O)c4)ncnc32)cc1`, which Potency is on record?
**A.** inconclusive: 0.891 µM [activator, partial curve, poor fit]

**Q.** With `O=C(CCl)N(C1CCCC1)C1CCS(=O)(=O)C1` (centres undefined) as the compound, how does the Potency read?
**A.** inconclusive: 22.4 µM [inhibitor, single point]

**Q.** Which Potency does the source give for `CCC(=O)N1CCN(c2ccc(NC(=S)NC(=O)c3cccc([N+](=O)[O-])c3)cc2)CC1` here?
**A.** inactive

**Q.** With `c1ccc(CNc2nc(-c3ccccn3)nc3ccccc23)cc1` as the compound, how does the Potency read?
**A.** inconclusive: 6.31 µM [inhibitor, single point]

**Q.** For `O=C(CC1Nc2ccccc2NC1=O)NCCc1ccccc1` (centres undefined), which Potency is on record?
**A.** inconclusive: 28.2 µM [inhibitor, single point]

**Q.** With `Clc1cccc(Cl)c1Cn1cnc2c(N3CCCCCC3)ncnc21` as the compound, how does the Potency read?
**A.** active: 4.61 µM

**Q.** Which Potency does the source give for `CCCCN(C)CCCNC(=O)c1cc(-c2cccs2)nc2ccccc12` here?
**A.** inconclusive: 22.4 µM [inhibitor, single point]

**Q.** For `COc1ccc(CCNCc2ccc(-c3ccccc3)cc2)cc1OC`, which Potency is on record?
**A.** inconclusive: 8.91 µM [inhibitor, partial curve, poor fit]

**Q.** For `CC(C)(C)c1cc(C(=O)O)n(Cc2ccc(Cl)cc2Cl)n1`, which Potency is on record?
**A.** inactive

**Q.** For `COc1ccc(CNC(=O)c2cc3cc(OC)ccc3oc2=O)cc1`, which Potency is on record?
**A.** inconclusive: 1.12 µM [inhibitor, partial curve, poor fit] and inconclusive: 15.8 µM [inhibitor, partial curve]

**Q.** For `COC(=O)c1cc(Cl)c(NC(=O)c2ccc(C(C)(C)C)cc2)cc1OC`, which Potency is on record?
**A.** inconclusive: 4.11 µM [inhibitor, full curve, poor fit]

**Q.** With `Cc1cc(C)c2c(CC(=O)Nc3ccc(S(=O)(=O)Nc4nc(C)cc(C)n4)cc3)coc2c1` as the compound, how does the Potency read?
**A.** inactive

**Q.** With `Cc1nn(Cc2ccc(Cl)cc2Cl)c(C)c1NC(=O)c1ccc(COc2cc(Cl)ccc2Cl)o1` as the compound, how does the Potency read?
**A.** inconclusive: 12.6 µM [inhibitor, partial curve, poor fit]

**Q.** For `COc1ccc(C)cc1NC(=O)C12CCC(C)(C(=O)O1)C2(C)C` (centres undefined), which Potency is on record?
**A.** inconclusive: 35.5 µM [inhibitor, single point]

**Q.** With `COc1ccc(Nc2nc(N)nc(CN3CCC(Cc4ccccc4)CC3)n2)cc1` as the compound, how does the Potency read?
**A.** inconclusive: 29.1 µM [inhibitor, single point]

**Q.** With `COc1cc(CNCc2ccco2)cc(OC)c1O` as the compound, how does the Potency read?
**A.** inactive

**Q.** With `Cc1ccc2[nH]c(=O)c(CN(Cc3ccccc3Cl)C(=O)N3CCOCC3)cc2c1` as the compound, how does the Potency read?
**A.** inactive

**Q.** Which Potency does the source give for `Cc1ccc(NC(=O)c2ccccc2O)cc1` here?
**A.** inconclusive: 14.1 µM [inhibitor, single point]

**Q.** With `COCC(=O)N1CCc2ccc(NC(=O)c3ccc(C(F)(F)F)cc3)cc2C1` as the compound, how does the Potency read?
**A.** inconclusive: 1.41 µM [inhibitor, full curve]

**Q.** For `Cc1cc(NC(=O)COc2ccc(C(C)(C)C)cc2)no1`, which Potency is on record?
**A.** inactive

**Q.** With `Cc1nc2sc3c(c2c(=O)o1)CCC3` as the compound, how does the Potency read?
**A.** inconclusive: 5.01 µM [activator, single point]

**Q.** With `COc1ccc(C(=O)COC(=O)CCCn2c(=O)oc3ccccc32)cc1` as the compound, how does the Potency read?
**A.** inactive
